Measured values as given in PubChem BioAssay AID651640 (Broad Institute, 2012).
Values joined by “and” are separate entries in the source; they are usually repeats but may differ in a detail not shown here. Equal entries are not always repeated. Hit rate of the full screen: of about 350,000 compounds, about 6,000 (1.7%) were called active. Inconclusive means that the source gave no clear call. Such entries were picked first, then a sample of the others. Cut-off read from the data, not from the text of the source: active = CPE inhibition above about 20% (passing the limit was not always enough); inconclusive = no clear call, values can overlap the other calls; tested in BHK-21 cells.

Assay: protection of cells from dengue 2 killing – plate reader, single concentration, primary screen (AID 651640);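 note: 0% = median of neutral control wells and 100% = median of positive control wells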
Conditions: DENV2-infected cells, cytopathic effect rescue, at 9.99 µM, active compounds read high
For `C[C@H](CO)N1C[C@H](C)[C@H](CN(C)S(=O)(=O)c2cccs2)Oc2ccc(NC(=O)Nc3ccc4c(c3)OCO4)cc2CC1=O`, the CPE inhibition was inactive: -8.51% and inactive: -3.3%. With `CC(C)NS(=O)(=O)c1cc(C(=O)O)ccc1Cl` the CPE inhibition was inconclusive: 40.2%. With `COC(=O)c1ccc2c(c1)sc(=NC(=O)CCS(=O)(=O)c1ccccc1)n2C` the CPE inhibition was inconclusive: 45.8%. In the case of `CCOc1ccccc1NC(=O)NCc1ccccc1`, the CPE inhibition was inconclusive: 25.8%. With `CC(C)Cn1c(=O)c2ccccc2n2c(CCC(=O)O)nnc12` the CPE inhibition was active: 70.2%. For `COCC(C)N1CCC(Oc2cccc(C(=O)NCCc3ccccc3)c2)CC1` (centres undefined), the CPE inhibition was inconclusive: 23.9%. With `CCOc1ccc(S(=O)(=O)N2CCN(C)CC2)cc1NC(=O)c1ccccc1F` the CPE inhibition was inactive: -3.47%. For `O=C(NCC1CCCO1)c1ccc(N2C(=O)C3CCCCC3C2=O)cc1` (centres undefined), the CPE inhibition was inconclusive: 28.5%. With `O=C(COC(=O)C12CC3CC(CC(O)(C3)C1)C2)Nc1ccc(Br)cc1F` the CPE inhibition was inconclusive: 22.2%. For `Cc1c(C(=O)NCc2ccc3c(c2)OCCO3)sc(=O)n1Cc1cccc(C(F)(F)F)c1`, the CPE inhibition was inconclusive: 21%. With `O=C(CN1CCOCC1)N1CCCCN2[C@H](CO)[C@@H](c3ccc(C#Cc4ccccc4F)cc3)[C@@H]2C1` the CPE inhibition was inconclusive: 43.5%. With `O=C(COC(=O)c1cccc(Cl)c1)NCc1ccccc1` the CPE inhibition was inconclusive: 25.7%. In the case of `CNc1cccc(-c2c(OC)cccc2OC)n1`, the CPE inhibition was inconclusive: 54.5%. For `C[C@H](CO)N1C[C@H](C)[C@H](CN(C)C(=O)[C@H]2CCCN2C)OCc2ccccc2-c2ccccc2C1=O`, the CPE inhibition was inactive: 7.51%. For `COc1ccccc1C(=O)Nc1ccc2[nH]ncc2c1`, the CPE inhibition was inactive: 0.936%. With `C[C@H]1CCCCO[C@H](CN(C)S(=O)(=O)c2cn(C)cn2)[C@@H](C)CN([C@@H](C)CO)C(=O)c2cc(NS(=O)(=O)c3cccs3)ccc2O1` the CPE inhibition was inactive: 1.41%. In the case of `Cc1cc(NC(=O)c2ccc3sc([C@@H]4O[C@H](CO)[C@H](O)[C@H](O)[C@H]4O)nc3c2)n(C)n1`, the CPE inhibition was inconclusive: 50.5%. With `CCCN(C)C[C@@H]1OCCCC[C@H](C)Oc2ccc(NC(=O)CCCN(C)C)cc2C(=O)N([C@@H](C)CO)C[C@@H]1C` the CPE inhibition was inconclusive: 31%. With `O=C(N[C@H]1CC[C@@H](CCNS(=O)(=O)c2cccc(Cl)c2)O[C@H]1CO)c1ccncc1` the CPE inhibition was inactive: -3.85%. In the case of `Cc1noc(C)c1NC(=O)N(C)C[C@@H]1OCCCC[C@@H](C)Oc2ccc(NS(=O)(=O)c3cccs3)cc2C(=O)N([C@H](C)CO)C[C@H]1C`, the CPE inhibition was inactive: -12%. In the case of `C[C@H](CO)N1C[C@H](C)[C@@H](CN(C)Cc2ccc3c(c2)OCO3)OCCCC[C@H](C)Oc2ccc(NC(=O)Cc3ccccc3)cc2C1=O`, the CPE inhibition was inconclusive: 27.2%. For `O=C(NC[C@H]1[C@H](c2ccccc2)[C@@H](CO)N1Cc1ccccn1)C1CCCC1`, the CPE inhibition was inactive: 2.93%. For `O=C(C[C@@H]1C[C@@H]2c3cc(NC(=O)C4CCOCC4)ccc3O[C@@H]2[C@H](CO)O1)NCc1ccccn1`, the CPE inhibition was inconclusive: 38.7%. For `CC(=O)N1[C@@H]2Cn3c(cccc3=O)[C@H]1[C@@H](C(=O)N1CCc3ccccc3C1)[C@@H]2CO`, the CPE inhibition was inconclusive: 21.8%. With `COc1ccc(/C=C/C(=O)N(CCC(N)=O)c2ccccc2)cc1S(=O)(=O)N1CCOCC1` the CPE inhibition was inconclusive: 43.5%. In the case of `CN1C(=O)c2cc(NC(=O)C3CC3)ccc2OC[C@@H]2O[C@@H](CC(=O)NCCc3ccncc3)CC[C@@H]21`, the CPE inhibition was inconclusive: 21.2%. With `c1ccc(CCCCN2C(Nc3ccccc3)=NC[C@@H]2Cc2ccccc2)cc1` the CPE inhibition was active: 24.1%. For `O=C(Cc1cccs1)NCCS(=O)(=O)N1CCN(c2ccccc2)CC1`, the CPE inhibition was inconclusive: 68.9%. With `Cc1cc(C(=O)CN2C(=O)c3ccccc3S2(=O)=O)c(C)n1C(C)C` the CPE inhibition was inactive: -4.82%. With `CC(C)NC(=O)N(C)C[C@@H]1Oc2ccc(NC(=O)c3ccncc3)cc2CC(=O)N([C@H](C)CO)C[C@H]1C` the CPE inhibition was inconclusive: 20.2%. In the case of `Cc1noc(C)c1NC(=O)Nc1ccc2c(c1)C(=O)N([C@@H](C)CO)C[C@H](C)[C@H](CN(C)S(=O)(=O)c1cccs1)OCCCC[C@H](C)O2`, the CPE inhibition was inactive: -0.914%. With `C[C@H](CO)N1C[C@H](C)[C@@H](CN(C)S(=O)(=O)c2cccs2)Oc2c(NC(=O)Nc3ccc(F)cc3)cccc2C1=O` the CPE inhibition was inactive: 3.1%. With `C[C@H](CO)N1C[C@H](C)[C@@H](CN(C)Cc2ccc(Cl)c(Cl)c2)Oc2ccc(NC(=O)Nc3ccc4c(c3)OCO4)cc2C1=O` the CPE inhibition was inactive: 3.07%. In the case of `Cc1ccc(-n2ncc(-c3n[nH]c(=S)o3)c2N)cc1C`, the CPE inhibition was inconclusive: 59.5%. For `O=C(N[C@H]1CC[C@H](CC(=O)N2CCc3ccccc3C2)O[C@@H]1CO)C1CC1`, the CPE inhibition was inactive: 2.81%. For `Nc1nc(NC(=O)c2ccccc2)nn1-c1ccccc1`, the CPE inhibition was inactive: 0.346%. For `O=C(C[C@@H]1CC[C@@H](NC(=O)Nc2ccc(C(F)(F)F)cc2)[C@H](CO)O1)NCc1cc(F)cc(F)c1`, the CPE inhibition was inactive: -2.76%. With `Cc1noc(C)c1NC(=O)N(C)C[C@@H]1Oc2ccc(NS(=O)(=O)c3c(C)noc3C)cc2CC(=O)N([C@H](C)CO)C[C@H]1C` the CPE inhibition was inconclusive: 27.8%. In the case of `O=C(Nc1ccc(F)cc1)N1C[C@@H]2N[C@H](C1)C2c1ccc(-c2ccccc2F)cc1` (some centres undefined), the CPE inhibition was inactive: 15% and inactive: 5.57%. In the case of `CCN(CC)c1ccc(S(=O)(=O)N2CCOCC2)cc1NC(=O)COC(=O)c1ccco1`, the CPE inhibition was inconclusive: 56.6%. For `CCN1C(=O)[C@@H]2[C@@H](c3ccc(-c4ccc5c(c4)OCO5)cc3)N3CCCC[C@@]3(C(=O)OC)[C@@H]2C1=O`, the CPE inhibition was inconclusive: 66.5%. With `C[C@@H]1CCCCO[C@H](CN(C)Cc2ccc(C(=O)O)cc2)[C@H](C)CN([C@@H](C)CO)C(=O)c2cc(NC(=O)c3ccncc3)ccc2O1` the CPE inhibition was active: 32.1%. For `O=C(NC[C@@H]1[C@H](c2ccccc2)[C@H](CO)N1CC1CCCC1)c1cccnc1`, the CPE inhibition was active: 54.5%. For `Cc1noc(C)c1NC(=O)NCC[C@H]1CC[C@H](NC(=O)Nc2cccc(F)c2)[C@@H](CO)O1`, the CPE inhibition was inconclusive: 28.2%.
